Experimental data reported in PubChem BioAssay AID540276 (National Center for Advancing Translational Sciences (NCATS), 2011).
Among all 300,000 compounds or so, about 5,400 (1.8%) were called active. Inconclusive means that the source gave no clear call. Such entries were picked first, then a sample of the others. The call rests on the fitted dose curve; tested in HEK293 cells. Potencies beside an inconclusive call are fits to weak or partial responses and may not hold up.

assay: qHTS for inhibitors of binding or entry into cells for Marburg Virus; settings: Marburg virus pseudotyped entry inhibition, cell reporter; activity change, negative = inhibition: at 37.8 µM (top of the series) unless noted
On the % scale 0 is the no-effect control and ±100 the full control effect; potency means the concentration at half of the fitted maximal effect.

SMILES | activity change, negative = inhibition | Potency
O=C(O)c1ccccc1C(=O)NCCc1ccc(Cl)cc1 | inactive: 17.9% | –
Cc1cccc(NC(=O)c2cc3ccccc3o2)c1 | – | inconclusive: 13 µM [inhibitor, partial curve, poor fit]
Cc1ccccc1C(=O)O/N=C(\N)c1ccccc1 | – | inconclusive: 7.08 µM [inhibitor, partial curve, poor fit]
CN(c1ccc(C(=O)N2CCOCC2)cc1)S(=O)(=O)c1cccs1 | – | inconclusive: 22.4 µM [activator, single point]
CC1CCCN(C(=O)COC(=O)c2cc(Br)ccc2O)C1 (centres undefined) | inactive: 26.6% | –
COCCCn1c(=N)c(C(=O)NCc2cccnc2)cc2c(=O)n3cc(C)ccc3nc21 | inactive: -1.93% [at 46.1 µM] | –
C/C(=N\NC(=O)c1nnn(-c2nonc2N)c1-c1ccccc1)c1ccccc1O | – | inconclusive: 3.16 µM [inhibitor, full curve]
COc1cc(O)c2c(=O)c3c(OC)c(O)ccc3oc2c1 | inactive: 19.3% | –
COc1cc(C(=O)NC(=S)Nc2cccc(-c3cc4ccccc4oc3=O)c2)cc(OC)c1OC | – | inconclusive: 10 µM [inhibitor, partial curve, poor fit]
Cc1cc(C)c2c(=O)cc(C(=O)NCc3ccccc3)oc2c1 | – | inconclusive: 6.31 µM [inhibitor, single point]
COC(=O)c1ccc2nc(Nc3nc4c(F)cc(F)cc4s3)sc2c1 | – | active: 7.31 µM
CSCCC(NC(=O)COc1ccccc1)C(=O)OCc1ccc(Cl)cc1 (centres undefined) | – | inconclusive: 20 µM [activator, single point]
CCCC(CCC)C(=O)Nc1ccc2c(c1)N(C(=O)CN1CCN(C)CC1)c1ccccc1CC2 | – | inconclusive: 11.2 µM [inhibitor, single point]
O=C(COc1ccccc1[N+](=O)[O-])Nc1cc(Cl)ccc1C(=O)O | – | inconclusive: 0.411 µM [inhibitor, partial curve, poor fit]
CCOc1cc(N2CCOCC2)c(OCC)cc1NC(=O)Cc1cccc2ccccc12 | – | inconclusive: 11.2 µM [inhibitor, partial curve]
c1ccc(-c2noc(-c3cccnc3)n2)cc1 | inactive: -25% | –
O=C(Cc1ccccc1)OCCNC(=O)c1cccnc1 | – | inconclusive: 5.17 µM [inhibitor, partial curve, poor fit]
COc1ccc(CCNC(=O)CC2Nc3ccccc3NC2=O)cc1 (centres undefined) | inactive: 3.83% | –
O=C([C@H](O)c1ccccc1)N1CCC[C@H]1CO | inactive: -3.77% | –
CCOC(=O)Cn1cnc2c(cnn2-c2ccc(OC)cc2)c1=O | – | inconclusive: 11.2 µM [activator, partial curve, poor fit]
COc1ccc(Cn2c(=O)c3[nH]cnc3n(-c3ccccc3C)c2=O)cc1 | – | inconclusive: 5.62 µM [inhibitor, full curve, poor fit]
COc1ccc(C(=O)Nc2ccc(Cl)cc2C(=O)NCc2ccco2)cc1 | – | inconclusive: 2.59 µM [inhibitor, single point]

SMILES | activity change, negative = inhibition | Potency
CCOC(=O)Cn1c(C(F)(F)F)nc2nc(Cl)c(Cl)nc21 | inactive: -19.9% | –
Cc1ccc(OCC(=O)Nc2ccc(NC(=O)c3cccs3)cc2)c(C)c1 | – | inconclusive: 35.5 µM [inhibitor, single point]
COc1ccc(CNCC(O)COc2ccc(C(C)(C)c3ccccc3)cc2)cc1 (centres undefined) | – | inconclusive: 35.5 µM [inhibitor, single point]
CCCn1c(SCC(=O)NC(C)c2ccccc2)n[nH]c1=O (centres undefined) | inactive: -16.7% | –
CCC1CCCCN1c1nc(-c2cccc(OC)c2O)nc2ccccc12 (centres undefined) | – | inconclusive: 29.1 µM [inhibitor, single point]
Cc1ocnc1C(=O)Nc1ccc(Cl)cc1 | inactive: 2.81% | –
O=C(Nc1ccc(Cl)c(Cl)c1)Nc1ccc(N2CCCC2)c(S(=O)(=O)Nc2ccccc2Cl)c1 | – | inconclusive: 23.1 µM [inhibitor, partial curve, poor fit]
COc1ccc(/C=N/NC(=O)CC(=O)N/N=C/c2ccc(OC)cc2)cc1 | – | inconclusive: 35.5 µM [inhibitor, single point]
CSc1ccc(CCNC(=O)C(C)n2nc(C)c3sc4ccccc4c3c2=O)cc1 (centres undefined) | – | inconclusive: 7.94 µM [inhibitor, partial curve, poor fit]
CCc1ccccc1NC(=O)c1ccc2c(SCC(=O)O)c3c(nc2c1)CCC3 | inactive: 18.1% [at 46.1 µM] | –
Cc1c(C)n(Cc2ccccc2)c2ccc(C(=O)OCCN(C)C)cc12 | – | inconclusive: 15.8 µM [inhibitor, single point]
Cc1nn(-c2ccccc2)c(Cl)c1C(=O)OCC(=O)NCCc1ccc(S(N)(=O)=O)cc1 | inactive: -4.99% | –
O=C(CC(c1ccccc1)c1ccccc1)NCCOCc1ccccc1 | – | inconclusive: 22.4 µM [inhibitor, single point]
COCCCNCCCCOc1cccc(Br)c1 | – | inconclusive: 20.6 µM [inhibitor, single point]
CCn1cc(CN2CCC(C(=O)Nc3ccc(Oc4ccccc4)nc3)CC2)cn1 | – | inconclusive: 8.91 µM [inhibitor, partial curve, poor fit]
O=C1C2=C(C(=O)c3ccccc31)C1O[C@](CCCCN3C(=O)c4ccccc4C3=O)(Cc3c1ccc1ccccc31)O2 | – | inconclusive: 0.0009 µM [inhibitor]
CC(=O)Nc1c(F)cc(Br)cc1F | – | inconclusive: 3.16 µM [inhibitor, single point]
CCOC(=O)CC(NC(=O)C(CC)c1ccccc1)c1ccccc1Cl (centres undefined) | – | inconclusive: 2 µM [inhibitor, full curve, poor fit]
COc1ccc(CN2CCN(CCCCOc3ccc(Cl)cc3)CC2)c(OC)c1OC | – | inconclusive: 5.62 µM [inhibitor, full curve, poor fit]
CCOc1ccccc1N(CC(=O)N1CCCCCC1)S(=O)(=O)c1ccc(C)cc1 | inactive: -10.4% | –
CN1CCN(Cc2cc(=O)oc3cc4c(cc23)CCC4)CC1 | – | inconclusive: 14.6 µM [inhibitor, partial curve, poor fit]
N#Cc1c2n(c3c(=O)n(Cc4ccc(Cl)cc4)cnc13)CCCC2 | – | inconclusive: 35.5 µM [inhibitor, single point]

Reformatted as a markdown table: part of the list above

| SMILES | activity change, negative = inhibition | Potency |
| --- | --- | --- |
| CCOC(=O)CC(NC(=O)C(CC)c1ccccc1)c1ccccc1Cl (centres undefined) | – | inconclusive: 2 µM [inhibitor, full curve, poor fit] |
| COc1ccc(CN2CCN(CCCCOc3ccc(Cl)cc3)CC2)c(OC)c1OC | – | inconclusive: 5.62 µM [inhibitor, full curve, poor fit] |
| CCOc1ccccc1N(CC(=O)N1CCCCCC1)S(=O)(=O)c1ccc(C)cc1 | inactive: -10.4% | – |
